Assay results published in publication PMC10878100.
Results are given in words; binding and its absence hold for the method and conditions named. In cells and extracts the contact can be indirect. Some entries that bind do so weakly or less than the wild type.

The chains behind the UniProt entries cited, without tags or fusion partners.
UniProt Q13616: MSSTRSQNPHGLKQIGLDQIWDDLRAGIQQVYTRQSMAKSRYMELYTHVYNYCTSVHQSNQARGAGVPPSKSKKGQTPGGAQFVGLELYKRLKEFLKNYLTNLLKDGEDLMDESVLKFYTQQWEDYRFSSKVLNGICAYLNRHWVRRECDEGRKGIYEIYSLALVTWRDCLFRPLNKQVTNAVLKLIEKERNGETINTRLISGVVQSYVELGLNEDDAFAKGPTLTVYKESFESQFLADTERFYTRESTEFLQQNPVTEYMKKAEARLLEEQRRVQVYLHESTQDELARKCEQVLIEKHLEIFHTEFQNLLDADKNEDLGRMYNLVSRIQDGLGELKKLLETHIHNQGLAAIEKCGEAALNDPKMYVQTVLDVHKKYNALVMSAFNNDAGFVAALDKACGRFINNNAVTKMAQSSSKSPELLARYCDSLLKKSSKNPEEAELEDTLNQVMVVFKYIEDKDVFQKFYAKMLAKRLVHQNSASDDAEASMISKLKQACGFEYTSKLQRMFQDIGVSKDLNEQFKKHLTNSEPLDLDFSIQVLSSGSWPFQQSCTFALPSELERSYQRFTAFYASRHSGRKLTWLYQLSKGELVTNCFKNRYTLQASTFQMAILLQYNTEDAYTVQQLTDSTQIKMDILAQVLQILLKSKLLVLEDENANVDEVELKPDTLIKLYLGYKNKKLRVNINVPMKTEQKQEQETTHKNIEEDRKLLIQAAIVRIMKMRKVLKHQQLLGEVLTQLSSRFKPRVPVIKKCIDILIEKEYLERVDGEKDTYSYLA
UniProt P03129: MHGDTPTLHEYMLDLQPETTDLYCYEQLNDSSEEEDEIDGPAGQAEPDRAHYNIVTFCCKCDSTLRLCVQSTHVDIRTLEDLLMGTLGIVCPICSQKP

T1: membrane-associated ring-CH-type finger 8 (MARCHF8) (human (endogenous in SCC152)) (UniProt Q5T0T0)
T1 sequence: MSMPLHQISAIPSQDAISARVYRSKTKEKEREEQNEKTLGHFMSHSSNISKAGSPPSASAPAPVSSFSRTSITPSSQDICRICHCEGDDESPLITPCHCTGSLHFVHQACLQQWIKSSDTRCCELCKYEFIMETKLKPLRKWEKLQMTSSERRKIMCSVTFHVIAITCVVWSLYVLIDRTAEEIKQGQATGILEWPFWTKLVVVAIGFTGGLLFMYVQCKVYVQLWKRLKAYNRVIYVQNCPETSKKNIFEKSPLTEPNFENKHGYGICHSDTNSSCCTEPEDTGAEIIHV


Columns and labels:
[1] = target: T1, membrane-associated ring-CH-type finger 8 (MARCHF8) (human (endogenous in SCC152)); assay: co-IP; whole cell lysates (RIPA buffer) of SCC152 cells treated with MG132 (10 µM); 5 µg of anti-MARCHF8, anti-CUL1 or anti-UBE2L3 antibody on protein A/G magnetic beads, 1-2 mg lysate, overnight at 4°C; detection by western blotting
[2] = target: cullin 1 (CUL1) (human (endogenous in SCC152)) (UniProt Q13616); assay: as above

Molecule | binding [1] | binding [2]
human papillomavirus 16 oncoprotein E7 (HPV16 E7) (from UniProt P03129 1-98) | no binding | –
membrane-associated ring-CH-type finger 8 (MARCHF8) (enzyme, UniProt Q5T0T0 1-291) MSMPLHQISAIPSQDAISARVYRSKTKEKEREEQNEKTLGHFMSHSSNISKAGSPPSASAPAPVSSFSRTSITPSSQDICRICHCEGDDESPLITPCHCTGSLHFVHQACLQQWIKSSDTRCCELCKYEFIMETKLKPLRKWEKLQMTSSERRKIMCSVTFHVIAITCVVWSLYVLIDRTAEEIKQGQATGILEWPFWTKLVVVAIGFTGGLLFMYVQCKVYVQLWKRLKAYNRVIYVQNCPETSKKNIFEKSPLTEPNFENKHGYGICHSDTNSSCCTEPEDTGAEIIHV | – | binds
